Laboratory results as given in US20190359666A1.
These are yes or no findings as the source states them, for the method shown. Some results given as binding are weak or reduced against the parent protein; the word gives no strength.

Tests used:
IGFBP3-Fc-VEGF-1 (human) [1] = assay: competition ELISA: unlabelled competitor against biotinylated VEGF (vegf-bio) binding to Chimera A, OD 450
IGFBP3-Fc-VEGF-1 (human) [2] = assay: competition ELISA on chimera A, competitor of biotinylated VEGF (FIG. 9)

B1: PIGF (ligand, UniProt P49763-2 21-149, looked up)
chain: AVPPQQWALSAGNGSSEVEVVPFQEVWGRSYCRALERLVDVVSEYPSEVEHMFSPSCVSLLRCTGCCGDENLHCVPVETANVTMQLLKIRSGDRPSYVELTFSQHVRCECRPLREKMKPERCGDAVPRR
**Q.** Which binding (IGFBP3-Fc-VEGF-1 (human) [1]) does the source give for B1 here?
**A.** Its binding is “binds”.

**Q.** What about the binding (IGFBP3-Fc-VEGF-1 (human) [2]) of the same binder?
**A.** Its binding is “binds”.
